This note sets out measurements from PMC10952133, “Phytocystatin 6 is a context‐dependent, tight‐binding inhibitor of Arabidopsis thaliana legumain isoform β” (The Plant Journal, 2023).

These are yes or no findings as the source states them, for the method shown.

The target in the test is T1, human legumain, activated (hLEG) (human) (UniProt Q99538).
T1 sequence: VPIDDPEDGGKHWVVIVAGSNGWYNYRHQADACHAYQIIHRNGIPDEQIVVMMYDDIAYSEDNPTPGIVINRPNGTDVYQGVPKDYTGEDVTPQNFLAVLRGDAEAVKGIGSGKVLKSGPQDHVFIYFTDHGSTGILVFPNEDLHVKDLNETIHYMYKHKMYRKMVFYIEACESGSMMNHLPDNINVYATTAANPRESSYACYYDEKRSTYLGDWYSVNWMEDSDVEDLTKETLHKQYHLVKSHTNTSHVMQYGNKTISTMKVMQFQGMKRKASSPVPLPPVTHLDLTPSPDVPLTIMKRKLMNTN
Kind of test: condition: inhibitor up to 15-fold the enzyme concentration (50 nM enzyme); enzyme inhibition kinetics (Ki, Morrison equation); turnover of 50 μM Z-Ala-Ala-Asn-AMC by 50 nM legumain, 25°C, 20 mM citric acid pH 5.5, 100 mM NaCl, 0.02% Tween 20, 2 mM DTT; inhibitor in 1:2 serial dilutions from 15-fold the enzyme concentration, quadruplicates; both purified.

B1: N-terminal domain of AtCYT6 (AtCYT6-NTD, A35-D127) (domain or fragment, Arabidopsis thaliana, UniProt Q8H0X6-1 35-127, looked up)
chain: ALVGGVGDVPANQNSGEVESLARFAVDEHNKKENALLEFARVVKAKEQVVAGTLHHLTLEILEAGQKKLYEAKVWVKPWLNFKELQEFKPASD
notes: Arabidopsis thaliana cystatin 6, N-terminal cystatin domain, residues A35-D127; Cloned into pET-28; source: E. coli BL21(DE3), purified (Ni-NTA, SEC)
In the case of B1, the binding result is “no binding”.
